Assay results published in PMC7819943, “Rice protein-binding microarrays: a tool to detect cis-acting elements near promoter regions in rice”.
Some of the results follow.

These sequences were tested against T1, OsSMF1 (Oryza sativa, UniProt Q6ZLB0 1-436) (assay: protein-binding microarray (RPBM); PBS, 2% BSA, 51.3 ng/ul salmon testes DNA, 50 uM zinc acetate, 200 nM TF, 25 C, 1 h; high values mean tight binding). Conditions: protein: recombinant; tags: N-terminal polyhistidine and DsRed monomer fusion (pET32a); chain copies: 2; label: CyDye5-dUTP incorporated in the synthesized complementary strand; 3' TTTTT single-stranded linker to array surface; dsDNA, one strand shown.
T1 sequence: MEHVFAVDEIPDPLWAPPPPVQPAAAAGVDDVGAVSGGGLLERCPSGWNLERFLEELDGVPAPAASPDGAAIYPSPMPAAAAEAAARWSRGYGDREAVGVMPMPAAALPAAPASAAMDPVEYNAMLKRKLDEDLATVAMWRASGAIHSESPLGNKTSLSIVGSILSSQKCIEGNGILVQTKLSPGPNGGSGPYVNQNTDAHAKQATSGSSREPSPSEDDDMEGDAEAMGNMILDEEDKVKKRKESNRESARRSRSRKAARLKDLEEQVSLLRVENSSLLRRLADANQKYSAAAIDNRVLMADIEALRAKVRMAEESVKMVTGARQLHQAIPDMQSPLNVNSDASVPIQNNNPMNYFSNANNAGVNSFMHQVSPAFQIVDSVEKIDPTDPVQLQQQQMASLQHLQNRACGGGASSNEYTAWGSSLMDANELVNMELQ
In short: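 A custom Agilent array was converted to double-stranded form by primer extension with Cy5-dUTP and blocked with 2% BSA. Protein at 200 nM in PBS with 2% BSA, salmon testes DNA and 50 µM zinc acetate was applied for 1 h at 25 °C, followed by washing. The proteins were polyhistidine–DsRed N-terminal fusions of transcription factors, expressed in E. coli BL21-CodonPlus and Ni–NTA-purified. The binding signal is per-feature fluorescence intensity (arbitrary units) from an Axon 4000B scanner.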

Sequence | binding signal
TATAATGTTTGGGTGCGTTTAATTCTATTTGAATTACACTCGGAGTCACCTAGTGCAG | 48000 fluorescence intensity (a.u.)
ACGTGTACGGCGCGGGGTGGAGGTGAGGGGTGGTGGGGCCCGGAGTCACCTAGTGCAG | 7050 fluorescence intensity (a.u.)
CTTTTCAGTATGACTGTATGAGCGAGCCTCCGCCCGCCACCGGAGTCACCTAGTGCAG | 5400 fluorescence intensity (a.u.)
TCTCTTAGCCTTAGCTCAGCTCGTCACGTTCACGTCCCAACGGAGTCACCTAGTGCAG | 3430 fluorescence intensity (a.u.)
ATTTGTCTACCCAAGATGATTGGAGCCACACGTCGGTCAGCGGAGTCACCTAGTGCAG | 4220 fluorescence intensity (a.u.)
TCACACGCGTCCGCATCAACCGAGCAATGAATCACGATCCCGGAGTCACCTAGTGCAG | 3870 fluorescence intensity (a.u.)
ATAACAGCGGGCCTTACGTGTACATGATAGTATATAGTACCGGAGTCACCTAGTGCAG | 7000 fluorescence intensity (a.u.)
GTCCTTCTGACATTCTATCTCAGCTAATTGAGTCATCACTCGGAGTCACCTAGTGCAG | 4700 fluorescence intensity (a.u.)
TCTGTTGCTGACTAGTGCCCTTACCTCTACGTCTGGTTTACGGAGTCACCTAGTGCAG | 4320 fluorescence intensity (a.u.)
GGTGATATACCTTGTCTAGCCTTCGCCAACGCATACAGATCGGAGTCACCTAGTGCAG | 3970 fluorescence intensity (a.u.)
CTATTGTTGCACTCACACTCCAAGCTGGAGTAGCTAGCTGCGGAGTCACCTAGTGCAG | 26700 fluorescence intensity (a.u.)
AGGATCGATTTACTGCGTCATCATCACAGCTCCAGCGGCCCGGAGTCACCTAGTGCAG | 8740 fluorescence intensity (a.u.)
TGGACTGACATATGGGGCCCACGTGGGTCCCACCTTATTACGGAGTCACCTAGTGCAG | 6140 fluorescence intensity (a.u.)
GTGTAATAGTGTGTGCGTGGGTGCGTCTGCAATGTAACTGCGGAGTCACCTAGTGCAG | 4790 fluorescence intensity (a.u.)
TTTTCTACAGCGCTGCTATAGCTACTTGTCAGCTGATGTACGGAGTCACCTAGTGCAG | 3620 fluorescence intensity (a.u.)
ACCATGCCTTCCTCCTCTCCACGTCCCCTGACGCAGCCTTCGGAGTCACCTAGTGCAG | 6080 fluorescence intensity (a.u.)
AGCAAGCAAAGCCGAAGAATTGTTACACGGCCAAAGTGGACGGAGTCACCTAGTGCAG | 41200 fluorescence intensity (a.u.)
ATTCATTGGAAAATAATTGTTTGCGTCACGTGTGGATATCCGGAGTCACCTAGTGCAG | 5550 fluorescence intensity (a.u.)
CCGATAACATGGGCCGGTATCTGTAAATGGGCCGAAAGGGCGGAGTCACCTAGTGCAG | 3200 fluorescence intensity (a.u.)
ATGACGATGGTTAATCCAAATAACATATTGGCCCGGGTTCCGGAGTCACCTAGTGCAG | 49900 fluorescence intensity (a.u.)
CAAACTCCTACCCAGGCAGATGACGCTCCATGGAGTCATGCGGAGTCACCTAGTGCAG | 3280 fluorescence intensity (a.u.)
ACCGTTCCGTTTTCCGTGCGGGGAGATTGGGTTCCCATCCCGGAGTCACCTAGTGCAG | 14400 fluorescence intensity (a.u.)
GTCGCCTGATAATAACATCTACGTGTTGTTGCCAGCTGATCGGAGTCACCTAGTGCAG | 4710 fluorescence intensity (a.u.)

Pulled one by one from above, two records:
Sequence | binding signal
AGCAAGCAAAGCCGAAGAATTGTTACACGGCCAAAGTGGACGGAGTCACCTAGTGCAG | 41200 fluorescence intensity (a.u.)
ATAACAGCGGGCCTTACGTGTACATGATAGTATATAGTACCGGAGTCACCTAGTGCAG | 7000 fluorescence intensity (a.u.)
